Test [1] has as its target T1, nEYFP-ICU11 (Arabidopsis thaliana) (UniProt Q3ED68).
T1 sequence: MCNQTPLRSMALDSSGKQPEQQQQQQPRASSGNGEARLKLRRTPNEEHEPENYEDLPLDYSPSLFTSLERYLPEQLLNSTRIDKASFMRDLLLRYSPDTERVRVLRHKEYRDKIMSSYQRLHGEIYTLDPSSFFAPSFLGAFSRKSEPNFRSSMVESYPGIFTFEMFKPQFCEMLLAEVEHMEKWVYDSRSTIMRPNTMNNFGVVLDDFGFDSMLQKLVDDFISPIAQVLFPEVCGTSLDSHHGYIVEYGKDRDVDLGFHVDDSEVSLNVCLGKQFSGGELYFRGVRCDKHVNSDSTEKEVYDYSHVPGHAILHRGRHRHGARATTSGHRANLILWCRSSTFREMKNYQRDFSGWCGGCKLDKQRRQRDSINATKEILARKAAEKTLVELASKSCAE
Description: split reporter.

In test [2] the target is T2, nEYFP-CP2 (Arabidopsis thaliana) (UniProt P0DO23).
T2 sequence: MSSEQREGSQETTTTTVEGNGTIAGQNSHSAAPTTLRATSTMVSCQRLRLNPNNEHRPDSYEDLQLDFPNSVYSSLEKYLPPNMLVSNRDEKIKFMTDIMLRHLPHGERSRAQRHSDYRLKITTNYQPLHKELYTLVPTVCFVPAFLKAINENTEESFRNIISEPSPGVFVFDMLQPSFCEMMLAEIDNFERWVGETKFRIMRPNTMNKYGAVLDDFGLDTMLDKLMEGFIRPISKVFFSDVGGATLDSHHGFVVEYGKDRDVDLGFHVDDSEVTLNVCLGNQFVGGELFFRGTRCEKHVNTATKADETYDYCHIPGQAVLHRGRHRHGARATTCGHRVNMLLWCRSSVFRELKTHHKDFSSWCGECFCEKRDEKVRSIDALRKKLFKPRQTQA
The test can be described thus: split reporter.

These are yes or no findings as the source states them, for the method shown. In cells and extracts the contact can be indirect. Some binding calls cover weakened binding; strength is not graded here.

B1: cEYFP-TRB1 (protein, UniProt Q8VWK4 1-300)
chain: MGAPKQKWTQEEESALKSGVIKHGPGKWRTILKDPEFSGVLYLRSNVDLKDKWRNMSVMANGWGSREKSRLAVKRTFSLPKQEENSLALTNSLQSDEENVDATSGLQVSSNPPPRRPNVRLDSLIMEAIATLKEPGGCNKTTIGAYIEDQYHAPPDFKRLLSTKLKYLTSCGKLVKVKRKYRIPNSTPLSSHRRKGLGVFGGKQRTSSLPSPKTDIDEVNFQTRSQIDTEIARMKSMNVHEAAAVAAQAVAEAEAAMAEAEEAAKEAEAAEAEAEAAQAFAEEASKTLKGRNICKMMIRA
Turning to B1, the binding entry in test [1] is reported as “binds”.

B2: cEYFP-SWN (protein, UniProt Q9ZSM8 1-856)
chain: MVTDDSNSSGRIKSHVDDDDDGEEEEDRLEGLENRLSELKRKIQGERVRSIKEKFEANRKKVDAHVSPFSSAASSRATAEDNGNSNMLSSRMRMPLCKLNGFSHGVGDRDYVPTKDVISASVKLPIAERIPPYTTWIFLDRNQRMAEDQSVVGRRQIYYEQHGGETLICSDSEEEPEPEEEKREFSEGEDSIIWLIGQEYGMGEEVQDALCQLLSVDASDILERYNELKLKDKQNTEEFSNSGFKLGISLEKGLGAALDSFDNLFCRRCLVFDCRLHGCSQPLISASEKQPYWSDYEGDRKPCSKHCYLQLKAVREVPETCSNFASKAEEKASEEECSKAVSSDVPHAAASGVSLQVEKTDIGIKNVDSSSGVEQEHGIRGKREVPILKDSNDLPNLSNKKQKTAASDTKMSFVNSVPSLDQALDSTKGDQGGTTDNKVNRDSEADAKEVGEPIPDNSVHDGGSSICQPHHGSGNGAIIIAEMSETSRPSTEWNPIEKDLYLKGVEIFGRNSCLIARNLLSGLKTCLDVSNYMRENEVSVFRRSSTPNLLLDDGRTDPGNDNDEVPPRTRLFRRKGKTRKLKYSTKSAGHPSVWKRIAGGKNQSCKQYTPCGCLSMCGKDCPCLTNETCCEKYCGCSKSCKNRFRGCHCAKSQCRSRQCPCFAAGRECDPDVCRNCWVSCGDGSLGEAPRRGEGQCGNMRLLLRQQQRILLGKSDVAGWGAFLKNSVSKNEYLGEYTGELISHHEADKRGKIYDRANSSFLFDLNDQYVLDAQRKGDKLKFANHSAKPNCYAKVMFVAGDHRVGIFANERIEASEELFYDYRYGPDQAPVWARKPEGSKKDDSAITHRRARKHQSH
Turning to B2, the binding entry in test [1] and in test [2] was “binds” throughout.

B3: cEYFP-CLF (protein, UniProt P93831 1-902)
chain: MASEASPSSSATRSEPPKDSPAEERGPASKEVSEVIESLKKKLAADRCISIKKRIDENKKNLFAITQSFMRSSMERGGSCKDGSDLLVKRQRDSPGMKSGIDESNNNRYVEDGPASSGMVQGSSVPVKISLRPIKMPDIKRLSPYTTWVFLDRNQRMTEDQSVVGRRRIYYDQTGGEALICSDSEEEAIDDEEEKRDFLEPEDYIIRMTLEQLGLSDSVLAELASFLSRSTSEIKARHGVLMKEKEVSESGDNQAESSLLNKDMEGALDSFDNLFCRRCLVFDCRLHGCSQDLIFPAEKPAPWCPPVDENLTCGANCYKTLLKSGRFPGYGTIEGKTGTSSDGAGTKTTPTKFSSKLNGRKPKTFPSESASSNEKCALETSDSENGLQQDTNSDKVSSSPKVKGSGRRVGRKRNKNRVAERVPRKTQKRQKKTEASDSDSIASGSCSPSDAKHKDNEDATSSSQKHVKSGNSGKSRKNGTPAEVSNNSVKDDVPVCQSNEVASELDAPGSDESLRKEEFMGETVSRGRLATNKLWRPLEKSLFDKGVEIFGMNSCLIARNLLSGFKSCWEVFQYMTCSENKASFFGGDGLNPDGSSKFDINGNMVNNQVRRRSRFLRRRGKVRRLKYTWKSAAYHSIRKRITEKKDQPCRQFNPCNCKIACGKECPCLLNGTCCEKYCGCPKSCKNRFRGCHCAKSQCRSRQCPCFAADRECDPDVCRNCWVIGGDGSLGVPSQRGDNYECRNMKLLLKQQQRVLLGISDVSGWGAFLKNSVSKHEYLGEYTGELISHKEADKRGKIYDRENCSFLFNLNDQFVLDAYRKGDKLKFANHSPEPNCYAKVIMVAGDHRVGIFAKERILAGEELFYDYRYEPDRAPAWAKKPEAPGSKKDENVTPSVGRPKKLA
On to B3, for which, in test [2], the binding result is reported as “binds”.

B4: cEYFP-TRB3 (protein, UniProt Q9M2X3 1-295)
chain: MGAPKLKWTPEEETALKAGVLKHGTGKWRTILSDPVYSTILKSRSNVDLKDKWRNISVTALWGSRKKAKLALKRTPLSGSRQDDNATAITIVSLANGDVGGQQIDAPSPPAGSCEPPRPSTSVDKIILEAITSLKRPFGPDGKSILMYIEENFKMQPDMKRLVTSRLKYLTNVGTLVKKKHKYRISQNYMAEGEGQRSPQLLLEGNKENTPKPEENGVKNLTKSQVGGEVMIMGMTEKEAAAAAARAVAEAEFAMAEAEEAAREADKAEAEAEAAHIFAKAAMKAVKYRMHSQTR
B4: the binding entry in test [1] is listed as “binds”.

B5: cEYFP-CP2 (protein, UniProt P0DO23 1-394)
chain: T2 sequence
Take B5: in test [1], the binding result was “no binding”.

For the origin of these results see paper doi:10.1101/2024.03.15.585069.
